In PubChem BioAssay AID248 (DTP/NCI, 2004):
The list does not hold the whole screen: it gathers tests that were run many times, whatever their T/C, doses with no T/C, and many T/C values between a quarter and a half above the control. Further doses and runs are listed elsewhere. T/C is the treated group as % of the vehicle group. Some doses have a count of surviving animals in place of a T/C: the source files T/C as zero there, which appears to mark a toxic dose or a test without result, not a measured value. Some survivor counts are full or nearly so, which does not show that the dose was tolerated: survival well below the control is almost never listed, so the zero probably covers shortened survival too. Counts of survivors are from the toxicity check (mostly the fifth day) where no day follows; animals may have died later. Schedule codes are those of the source, read here as Q, the interval in days (D) or hours (H), X, the number of doses. Some entries hold several experiments; the results are listed from low to high.

Tested on: L1210 leukemia ip in BDF1 mice, survival T/C
Test: NCI In Vivo Anticancer Drug Screen. Data for tumor model L1210 Leukemia (intraperitoneal) in B6D2F1 (BDF1) mice
Details: T/C endpoint: mean survival time, higher T/C = longer survival
[1] = dose: 300.0 mg/kg/injection, schedule: Q01DX001 (ip), vehicle: saline
[2] = dose: 400.0 mg/kg/injection, schedule: Q04DX003 (ip), vehicle: saline

SMILES: CCCCNCCOC(=O)c1ccc(N)cc1
- survivor count (dose: 150.0 mg/kg/injection, schedule: Q01DX001 (ip), vehicle: saline): 0 of 6
- survivor count [1]: 0 of 6

SMILES: N#Cc1sc2ccccc2c1CBr
- survivor count (dose: 400.0 mg/kg/injection, schedule: Q04DX003 (ip), vehicle: Klucel (hydroxypropylcellulose) (HPC)): 6 of 6

SMILES: OC1C2(CCCCC2)CNC12C=CCCC2 (stereo not drawn)
- survivor count [1]: 2 of 6

SMILES: S=C(Nc1ccccc1)NC1CCCCCC1
- survivor count (dose: 100.0 mg/kg/injection, schedule: Q01DX009 (ip), vehicle: saline with Tween-80): 6 of 6
- survivor count [2]: 3 of 6

SMILES: CC1CN=C(c2ccc(NC(=O)C3CCC(C(=O)Nc4ccc(C5=NCC(C)N5)cc4)CC3)cc2)N1 (stereo not drawn)
- survivor count (dose: 125.0 mg/kg/injection, schedule: Q01DX015 (ip), vehicle: methylcellulose (MC)): 6 of 6
- survivor count (dose: 250.0 mg/kg/injection, schedule: Q01DX015 (ip), vehicle: methylcellulose (MC)): 3 of 6

SMILES: CCC1CCNCC1
- survivor count (dose: 100.0 mg/kg/injection, schedule: Q01DX009 (ip), vehicle: saline): 2 of 6 and 3 of 6
- survivor count (dose: 200.0 mg/kg/injection, schedule: Q01DX009 (ip), vehicle: saline): 0 of 6
- survivor count (dose: 400.0 mg/kg/injection, schedule: Q01DX009 (ip), vehicle: saline): 0 of 6

SMILES: CCOC(=O)CCCCCCCCCC[N+](CC)(CC)CC(=O)c1ccc(NC(C)=O)cc1
- survivor count (dose: 300.0 mg/kg/injection, schedule: Q01DX001 (ip), vehicle: other): 3 of 6

SMILES: C=C(Cl)CSC(=S)N(CC)CC
- survivor count [2]: 1 of 6

SMILES: CCCCOP(=O)(N1CC1CC)N1CC1CC (stereo not drawn)
- survivor count (dose: 25.0 mg/kg/injection, schedule: Q04DX003 (ip), vehicle: other): 6 of 6
- survivor count (dose: 50.0 mg/kg/injection, schedule: Q01DX009 (ip), vehicle: other): 3 of 6
- survivor count (dose: 100.0 mg/kg/injection, schedule: Q04DX003 (ip), vehicle: other): 0 of 6
- survivor count (dose: 200.0 mg/kg/injection, schedule: Q04DX003 (ip), vehicle: other): 2 of 6
- survivor count (dose: 400.0 mg/kg/injection, schedule: Q04DX003 (ip), vehicle: other): 0 of 6
